Data source: PubChem BioAssay AID686943 (Drosophila RNAi Screening Center, 2013)

Assay: 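Fly genes whose loss alters ERK activation after insulin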 (primary screen)
System: Drosophila S2R+ haemocyte-like cells expressing YFP-tagged ERK (Rolled)
Reagents: long dsRNA against Drosophila genes
Challenge: insulin stimulation versus unstimulated cells; dose and duration not given
Measured: 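Antibody staining for doubly phosphorylated ERK divided by ERK-YFP signal, as plate z-scores, in insulin-treated and untreated cells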
Direction: replicate 1, z-score of dpERK with insulin and replicate 2, z-score of dpERK with insulin: higher = more active ERK per ERK-YFP after insulin; replicate 1, z-score of dpERK under basal conditions: higher = more basal active ERK per ERK-YFP; replicate 1, z-score of ERK-YFP with insulin: higher = more YFP-tagged ERK signal
The deposit covers about 23,000 reagents; below is a random part of those that have a named target and a result. 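Extra replicates exist only for a retested subset of genes; insulin dose and duration not given; both raised and lowered dpERK matter.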 Names joined by + are all predicted targets of the reagent. Not stated in the record: the amount of reagent, the time to read-out.

| Target gene | dsRNA | replicate 1, z-score of dpERK with insulin | replicate 2, z-score of dpERK with insulin | replicate 1, z-score of dpERK under basal conditions | replicate 1, z-score of ERK-YFP with insulin |
| --- | --- | --- | --- | --- | --- |
| CG43894 | DRSC09225 | 0.63 | 0.61 | 0.79 | -0.51 |
| CG43894 | DRSC10123 | -5 | -3.07 | -0.03 | -0.8 |
| CG17267 | DRSC15207 | 0 | 0.41 | 0.53 | -0.4 |
| ppk29 | DRSC04205 | 0.11 | -0.64 | -0.68 | 0.29 |
| CG18476 | DRSC15281 | 0.89 | 0.07 | -0.58 | -0.88 |
| CG44098 | DRSC12214 | 0.66 | 0.92 | 0.4 | 0.27 |
| CG44098 | DRSC12240 | 0.89 | -0.17 | 1.7 | -4.78 |
| CG44098 | DRSC12327 | 0.14 | 0.75 | -0.17 | 0.32 |
| Uros2 | DRSC16505 | 0.28 | 0.45 | 0.55 | 0.56 |
| CG32713 | DRSC22766 | -0.06 | 0.68 | 1.4 | 0.55 |
| Polr2M | DRSC15513 | 1.85 | -0.11 | 0.19 | -0.39 |
| RfC4 | DRSC08691 | -0.52 | -0.5 | -0.15 | 0.54 |
| AspRS | DRSC05914 | 0.01 | -0.31 | -0.09 | 0.22 |
| Sgt1 | DRSC16519 | -0.48 | -0.1 | 1.56 | -0.81 |
| CheB93b | DRSC21762 | -0.27 | 0.05 | -0.15 | 0.23 |
| trsn | DRSC06078 | 0.5 | 0.24 | -0.61 | 0.43 |
| Sprn | DRSC10132 | 0.26 | 0.45 | 0.29 | 0.96 |
| CG1648 | DRSC06610 | 0.14 | 0.36 | 0.68 | 0.09 |
| Sh | DRSC19214 | -3.48 | -2.51 | -4.09 | -1.17 |
| Sh | DRSC19220 | 1.13 | 1.35 | -0.12 | -0.32 |
| Sh | DRSC19785 | 0.98 | -0.57 | 0.52 | 0.18 |
| Sh | DRSC20055 | 0.89 | 0.58 | -0.89 | -0.11 |
| Sh | DRSC22567 | 0.71 | 0.13 | 0.11 | 0.92 |
| CG17234 | DRSC00490 | -0.07 | 0.56 | 0.65 | -0.44 |
| Cyp12d1-d + Cyp12d1-p | DRSC21507 | 0.7 | 0.48 | 0.05 | 1.75 |
| Axn | DRSC14120 | -1.54 | -2.86 | 0.66 | 0.07 |
| caly | DRSC07182 | 0.2 | -0.48 | -0.39 | 0.13 |
| su(Hw) | DRSC17074 | 0.78 | -0.22 | -0.74 | -0.21 |
| Gfrl | DRSC15196 | -0.42 | 0.26 | -0.47 | 0.8 |
| Gfrl | DRSC15197 | -0.11 | 0.51 | -0.63 | 0.2 |
| Gfrl | DRSC15199 | 1.51 | 0.62 | 1.19 | 0.15 |
| Gfrl | DRSC15565 | -0.28 | 0.19 | -0.17 | -0.5 |
| Gfrl | DRSC15719 | -0.11 | -0.54 | -0.64 | 0.16 |
| CG9689 | DRSC18440 | 1.07 | 0.65 | 0.41 | -0.56 |
| msn | DRSC07990 | -0.15 | -0.5 | 0.68 | 1.2 |
| msn | DRSC08498 | 0.17 | 0.06 | 1.32 | 0.1 |
| Klp59C | DRSC04348 | -0.04 | 1.07 | 1.27 | 0.46 |
| CG12991 | DRSC19511 | 0.49 | -0.41 | 1.25 | 0.23 |
| Grip | DRSC17940 | -3.59 | -2.89 | -2.07 | -0.23 |
| Grip | DRSC18395 | -0.09 | -0.02 | 0.32 | 1.02 |
| CG4497 | DRSC02754 | -0.79 | -1.22 | 0.52 | -0.32 |
| twin | DRSC15259 | -1.74 | -0.53 | -0.84 | 1.03 |
| twin | DRSC15831 | 0.67 | -1.25 | 0 | -0.02 |
| twin | DRSC21363 | -0.41 | -0.29 | 0.17 | 0.07 |
| Trxr1 | DRSC18668 | -0.05 | 0.7 | -0.38 | 0.57 |
| Trxr1 | DRSC22293 | 0.69 | 1.12 | -0.61 | -0.12 |
| Cpr49Af | DRSC07202 | 0.24 | 0.4 | -0.03 | -0.54 |
| CG14332 | DRSC14811 | 0.84 | 0.09 | 0.63 | -0.69 |
| CG7519 | DRSC11834 | 0.26 | 0.07 | 0.33 | 0.37 |
| CG31253 + CG31131 | DRSC13839 | -0.34 | 0.97 | 0.66 | 0.22 |
| Ank | DRSC17127 | -0.03 | -0.51 | 0.26 | 0.9 |
| CG12576 | DRSC20621 | -0.25 | -0.52 | 0.38 | -0.64 |
| CG5504 | DRSC04701 | 0.22 | 0.58 | -0.59 | 0 |
| Rpt1 | DRSC07542 | -3.35 | -4.74 | -4.34 | 0.16 |
| CG7755 | DRSC07040 | 1.38 | 0.06 | -0.05 | -0.48 |
| vito | DRSC21781 | 0.42 | -1.06 | 0.3 | -3.11 |
| tefu | DRSC16060 | -0.72 | -0.78 | 1 | -1.89 |

Laid out differently: 3 of the entries above.
{"Target gene": "msn", "dsRNA": "DRSC08498", "replicate 1, z-score of dpERK with insulin": 0.17, "replicate 2, z-score of dpERK with insulin": 0.06, "replicate 1, z-score of dpERK under basal conditions": 1.32, "replicate 1, z-score of ERK-YFP with insulin": 0.1}
{"Target gene": "Klp59C", "dsRNA": "DRSC04348", "replicate 1, z-score of dpERK with insulin": -0.04, "replicate 2, z-score of dpERK with insulin": 1.07, "replicate 1, z-score of dpERK under basal conditions": 1.27, "replicate 1, z-score of ERK-YFP with insulin": 0.46}
{"Target gene": "CG12991", "dsRNA": "DRSC19511", "replicate 1, z-score of dpERK with insulin": 0.49, "replicate 2, z-score of dpERK with insulin": -0.41, "replicate 1, z-score of dpERK under basal conditions": 1.25, "replicate 1, z-score of ERK-YFP with insulin": 0.23}
